Measurements reported in PubChem BioAssay AID504444 (National Center for Advancing Translational Sciences (NCATS), 2011).
The campaign covered roughly 360,000 compounds. About 7,500 (2.1%) were called active. Inconclusive means that the source gave no clear call. Such entries were picked first, then a sample of the others. Calls follow the shape of the dose curve; as a rule, active = well fitted inhibition curve with a large enough effect; inconclusive = small, poorly fitted or top-dose-only effect, or effect the other way; inactive = flat fitted curve, though single readings scatter. A potency beside an inconclusive call is a rough fit, not a confirmed value.

Experiment: Nrf2 qHTS screen for inhibitors; also: nearly all actives have a fitted effect of over 60% in size
Settings: A549 ARE-Fluc reporter, luciferase luminescence, 18-24 h; activity change, negative = inhibition: at 46 µM (top of the series)
Outline: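 Quantitative HTS in A549 cells stably bearing an antioxidant response element-firefly luciferase construct. Inhibition of Nrf2-driven transcription was scored by luminescence after 18-24 h of compound exposure at 37 °C.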
% is scaled to controls: 0 for no effect and ±100 for the full control effect; potency is read from the fitted curve at half-maximal effect.

SMILES | Potency | activity change, negative = inhibition
COc1ccc(OC)c(CCNC(=O)CCCn2c(=O)c3cccn3c3ccc(F)cc32)c1 | inconclusive: 29.1 µM [activator, single point] | –
CCOC(=O)N1CCC(NC(=O)c2c(C)nn(-c3cccc(C)c3)c2-n2cccc2)CC1 | inconclusive: 16.4 µM [falling, single point] | –
Cc1ccc2c(=O)c(C(=O)c3cccc(Cl)c3)cn(CC(=O)NC3CCCCC3)c2n1 | inconclusive: 18.4 µM [activator, single point] | –
O=C(NCc1nc2ccccc2[nH]1)C1=C[C@@H](c2ccc(Br)cc2)C[C@@H](OCc2ccc(CO)cc2)O1 | inconclusive: 29.1 µM [falling, single point] | –
COc1ccc2c(c1)CC/C(=C\c1ccc(C)o1)C2=O | – | inactive: 19.4%
CCCCN(C(=O)CSCc1ccc(C)cc1)c1c(N)n(CCC)c(=O)[nH]c1=O | – | inactive: 0.487%
Cc1ccc(OCc2cc(C(=O)NCc3cnn(-c4cccc(F)c4)c3)no2)cn1 | inconclusive: 0.82 µM [falling, partial curve] | –
Cc1nc(SCC(=O)N(C)Cc2ccco2)c2c(C)c(C)sc2n1 | inconclusive: 29.1 µM [falling, single point] | –
COc1ccc(NC(=O)CCC(=O)N/N=C/c2ccc([N+](=O)[O-])s2)cc1 | inconclusive: 16.4 µM [falling, partial curve, poor fit] | –
CC(=O)C[C@H](O)CC(=O)[C@@H]1OC(=O)[C@H](C)C/C=C\Cc2ccccc21 | – | inactive: 5.6%
Clc1ccc(-c2ccc(C=Nc3ccc(N4CCOCC4)cc3)o2)c(Cl)c1 | inconclusive: 4.11 µM [activator, full curve] | –
CN(C(=O)COC(=O)c1ccc(F)c(S(=O)(=O)N2CCOCC2)c1)C1CCS(=O)(=O)C1 (configuration not stated) | inconclusive: 4.11 µM [falling, single point] | –
CN(CC(=O)Nc1ccc(C#N)cc1)Cc1ccc(Cl)cc1 | inconclusive: 29.1 µM [falling, single point] | –
COc1ccc(/C=C/C(=O)Nc2ccc(C34CC5CC(CC(O)(C5)C3)C4)cc2)cc1OC | inconclusive: 6.51 µM [activator, single point] | –
Cc1ccc(/C=C2\SC(=S)N(CCC(=O)NNC(=O)c3cccnc3)C2=O)cc1 | inconclusive: 11.6 µM [falling, partial curve] | –
O=C(O)c1ccccc1SCc1csc(-c2ccccc2)n1 | inconclusive: 6.51 µM [activator, partial curve] | –
Cc1ccc(NC2=C(Cl)C(=O)c3ccccc3C2=O)cc1 | – | inactive: 23%
O=C(CSc1nnc(NC(=O)c2ccccc2Cl)s1)NC1CC1 | inconclusive: 29.1 µM [activator, single point] | –
Cc1[nH]c(C)c(S(=O)(=O)NCc2ccccc2Cl)c1C(=O)N1CCCC1 | inconclusive: 4.11 µM [falling, full curve, poor fit] | –
Cc1cccc(N2CCN(S(=O)(=O)c3ccc(-c4ccc(=O)[nH]n4)o3)CC2)c1C | active: 13 µM | –
Cc1cnc(NC(=O)COc2ccc3c(c2)CCC3)s1 | inconclusive: 1.3 µM [activator, partial curve] | –
CC[C@]12c3[nH]c4cc(-c5ccco5)ccc4c3CCN1C(=O)[C@@H](CC(=O)NC/C=C(\C)CCC=C(C)C)C[C@@H]2C(=O)N1CCN(C(=O)c2ccco2)CC1 | inconclusive: 18.4 µM [falling, single point] | –
COc1cccc(Nc2nnc(SCN3C(=O)c4ccccc4C3=O)s2)c1 | inconclusive: 8.2 µM [activator, partial curve] | –

An excerpt of these results, as tab-separated lines:
SMILES	Potency	activity change, negative = inhibition
Cc1cccc(N2CCN(S(=O)(=O)c3ccc(-c4ccc(=O)[nH]n4)o3)CC2)c1C	active: 13 µM	–
Cc1cnc(NC(=O)COc2ccc3c(c2)CCC3)s1	inconclusive: 1.3 µM [activator, partial curve]	–

Continued:

SMILES | Potency | activity change, negative = inhibition
Cn1ncc(SCc2ccccc2)c(Cl)c1=O | inconclusive: 23.1 µM [falling, partial curve] | –
Cc1cc(C)c2c(c1)c1nnc(SCCN3CCCCC3)nc1n2C | inconclusive: 13 µM [activator, partial curve, poor fit] | –
CCCCc1ccc(NC(=S)NCc2ccc(OC)cc2)cc1 | – | inactive: -2.8%
CCOCCCn1cnc2c(c1=O)c1nc3ccccc3nc1n2-c1ccc(C)cc1 | inconclusive: 0.103 µM [falling, full curve, poor fit] | –
O=C(NC1CCCCCC1)c1cc2ccccc2oc1=O | – | inactive: 3.51%
O=C(NCc1cccc(Cl)c1)c1cccc(S(=O)(=O)N2CCCC2)c1 | inconclusive: 8.2 µM [falling, partial curve, poor fit] | –
CCOc1ccc(C2c3c(-c4cc(C)ccc4O)n[nH]c3C(=O)N2Cc2cccnc2)cc1OCC (configuration not stated) | – | inactive: 17.4%
Nc1ccccc1-c1nc2ccccc2s1 | inconclusive: 23.1 µM [activator, single point] | –
C=CC[C@@H](CC(=O)N[C@@H](CO)Cc1ccccc1)C(=O)NC[C@@H](OC(=O)[C@@H](CC=C)CC(=O)OC(C)(C)C)c1ccccc1 | inconclusive: 29.1 µM [falling, single point] | –
COc1ccccc1NC(=O)CC(C)n1nc(C)cc1C (configuration not stated) | inconclusive: 29.1 µM [activator, single point] | –
Cc1nc(=S)n(-c2ccccc2)[nH]1 | inconclusive: 29.1 µM [activator, single point] | –
COc1ccc(-n2nc([N+](=O)[O-])c(=NCc3ccco3)n2O)cc1 | inconclusive: 29.1 µM [activator, single point] | –
COc1cc(C(=O)Nc2cccc(-c3nnc(-c4ccco4)o3)c2)ccc1OC(C)=O | inconclusive: 23.1 µM [activator, single point] | –
Nc1ncnc2nc(SCC(=O)Nc3cccc(C(F)(F)F)c3)[nH]c12 | inconclusive: 29.1 µM [falling, single point] | –
CCN(C(=O)COC(=O)/C(C#N)=C/c1ccc(N(C)C)cc1)C1CCS(=O)(=O)C1 (configuration not stated) | inconclusive: 9.2 µM [activator, partial curve, poor fit] | –
COc1ccc(NC2=CC(c3ccc(F)cc3)N(c3ccc(OC)cc3)C2=O)cc1 (configuration not stated) | – | inactive: 6.62%
CC(=O)CCc1c(C)[nH]c2ccc(NC(C)=O)cc2c1=O | – | inactive: -4.16%
CN(CC(=O)Nc1ccccc1Cl)C(=O)Cn1cnc2ccc(Cl)cc2c1=O | – | inactive: -11.6%
Cc1cc(/C=C2\SC(=S)N(Cc3ccco3)C2=O)c(C)n1-c1cccnc1 | – | inactive: 6.68%
CCN(c1ccccc1)S(=O)(=O)c1ccc(OC)c(NC(=O)Cc2ccc(OC)c(OC)c2)c1 | inconclusive: 29.1 µM [falling, single point] | –
COC(=O)c1ccc2nc(-c3cccc(N)c3)cn2c1 | inconclusive: 1.46 µM [activator, partial curve] | –
COc1cccc(CNC(=O)Cn2ncc3c(=O)oc4ccccc4c32)c1 | inconclusive: 0.0041 µM [activator, full curve, poor fit] | –
Cc1cc(CN(C)C(=O)c2cc(COc3ccc(C)c(C)c3)on2)on1 | inconclusive: 6.51 µM [activator, partial curve] | –

SMILES | Potency | activity change, negative = inhibition
CN(C(=O)c1cccc(NC(=O)C2CCCN(C(=O)OC(C)(C)C)C2)c1)C1CCCC1 (configuration not stated) | inconclusive: 23.1 µM [falling, single point] | –
Clc1cnc(N/N=C/c2cccs2)c(Cl)c1 | inconclusive: 2.31 µM [activator, full curve] | –
CCCCSc1nc2c([nH]1)c(=S)n(C)c(=O)n2C | inconclusive: 29.1 µM [falling, single point] | –
CC(NC(=O)COc1ccc(Br)cc1)C1CCCO1 (configuration not stated) | – | inactive: -23.9%
C=CCN1C(=O)/C(=C\c2ccco2)C(C(=O)OC)=C1C | – | inactive: 7.85%
Cn1c(SCC(=O)N2CCCC2)nnc1-c1ccc2c(c1)OCO2 | inconclusive: 0.58 µM [activator, full curve] | –
CSc1nn(-c2ccc(C(=O)OCC(=O)NC(=O)NC(C)C)cc2)c(=S)s1 | – | inactive: -13.2%
COc1cccc(NC(=O)c2c(-c3ccc(C)cc3)nnc3ccccc23)c1 | – | inactive: -4%
Cc1nn(C)cc1/C=C(/C#N)C(N)=O | – | inactive: -11.7%
Cc1ccc(C)c(Cn2c(=O)n(-c3ccc(Cl)cc3)c(=O)c3c4c(sc32)CCC4)c1 | inconclusive: 0.731 µM [falling, full curve, poor fit] | –
Cc1ccc(-n2c3nc(=O)[nH]c(=O)c-3cc3cc([N+](=O)[O-])ccc32)cc1 | inconclusive: 13 µM [falling, partial curve, poor fit] | –
COc1ccc(NC(=O)CSc2nc3ncccc3[nH]2)cc1OC | – | inactive: 5.26%
Cn1c(=O)c(-c2cc(=O)[nH][nH]2)c(O)c2ccccc21 | inconclusive: 29.1 µM [activator, single point] | –
Cc1ccc(C)c(S(=O)(=O)C(C#N)c2nc3ccccc3nc2N2CCOCC2)c1 (configuration not stated) | inconclusive: 23.1 µM [falling, partial curve] | –
CN(C)c1ccc(NC(=O)CCCc2ccccc2)cc1 | inconclusive: 2.06 µM [activator, full curve] | –
COCCOC(=O)c1c(NC(=O)CN2c3ccccc3CC2C)sc(C(N)=O)c1C (configuration not stated) | – | inactive: -17.8%
Cc1cc(C)c(S(=O)(=O)Nc2ccc3oc4c(c3c2)CCCC4)cc1C | – | inactive: -19%
CN(C)CCN(C(=O)c1ccccc1Cl)c1nc2c(Cl)cccc2s1 | – | inactive: 11.2%
O=C(c1ccc(NS(=O)(=O)c2cccc([N+](=O)[O-])c2)cc1)N1CCCCCC1 | inconclusive: 25.9 µM [falling, partial curve, poor fit] | –
COc1ccc(C(=O)/C(C#N)=N/Nc2cccc([N+](=O)[O-])c2)cc1 | active: 23.1 µM | –
Cc1cc(OCc2ccc(C(=O)Nc3ccc(C(=O)O)cc3)o2)ccc1Cl | inconclusive: 20.6 µM [falling, single point] | –
